The values that follow come from PubChem BioAssay AID1347423 (Functional Genomics Laboratory (NCATS/FGL), 2020).

Out of some 52,000 sequences screened, about 210 (0.4%) were called active.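 Rule for the calls: active = gene whose silencing raises cell survival under the drug, median off-target-corrected z-score across its silencing RNAs 2 or more; inactive = the rest.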 The list shows a part of the results.

The nature of this assay: Resistance to Poly (ADP-Ribose) Polymerase inhibitor: Gene Identification via Genome-wide siRNA Screen. As to conditions: mouse BRCA2 R2336H ES cells, olaparib, CellTiter-Glo viability; active compounds read high. The procedure, abridged: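 Mouse BRCA2 R2336H ES cells were reverse-transfected with siRNA (20 nM final), treated at 48 h with 500 nM olaparib, and read by CellTiter-Glo after 72 h. Scores: MAD-based z per siRNA, median per gene, seed off-target correction.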
Consider GCAGUGGUAGAUCUUAGAGTT against Lmcd1, for which the z-score was inactive: -0.326.

Consider GGAAUGCAGCCAUCCUAUCTT against Mia, for which the z-score is inactive: 0.193. The figure for “GGUUGAUCGUGUCAUGUAGTT against 4933430F16Rik” is inactive: 0.81. As to CCUAUAACAUCCACCUUCATT against D17Wsu94e, the z-score was inactive: -1.66. For GGGCAAACUCUAGAGCUACTT against Pdgfrl the value was inactive: 0.782.

Regarding CGGGAUUAAUCUUUCUGGGTT against Clec2, the z-score is inactive: 0.0652. As to GGAAUUGAGACCCAAUAUUTT against Cnot7, the z-score was inactive: -0.494. For the sequence GCACAGUUGGCAACCUUUATT against S100a9, the z-score is inactive: -1.07.

For GGUGACAUUUGAGAUCUAUTT against Plcg2, the z-score is inactive: -0.97. Regarding “GGGACAAUGAAUGUGAUCUTT against 1700056P18Rik”, the z-score is inactive: -0.649. Take GGCCCAUGAUCCAUUUUGGTT against Prnp: the z-score is inactive: 0.948. The figure for GGUCUUCUUCUUCAAAGCUTT against Mrpl46 is inactive: -0.301; for GCUUAAGGACGCAUUGAAATT against Pthlh it is inactive: -0.0187; for GCCACUAUACAUAUUCUGGTT against Pcdhb18 it is inactive: 1.43.

Regarding GGUGUGGUCAAGAAAGUGGTT against Atp6v1c1, the z-score was inactive: -1.5. For CCGAUUUUGUGGCCUCAUGTT against Grcc2f the value was inactive: -1.69; for GGAAGAUCAUCCUAUUAUGTT against Wdr26, inactive: -0.526. For the sequence GCGAUAGCAUAUCCUAUCCTT against Gnb1, the z-score is inactive: 0.0208. The figure for CAAGUUAAGGAACUAUGAUTT against LOC432823 is inactive: 1.17. “GGAGAUCAUGUCAAAAAAGTT against 5430411K16Rik”: the z-score was inactive: -0.0837. For GGGCAUGAAGUUUCUGAUCTT against Fgf17 the value was inactive: 1.27; for GCAACUCAGAAUGUAGUGUTT against Gnai1, inactive: 0.0155. For CCAAGGCUCACCUUCCAAUTT against Sla the value was inactive: -1.39. For “GGCAGAUCUUCUUUGGAAATT against 9430041C03Rik” the value was inactive: 1.47. Regarding GGAGAGUGCUGAUGUUCUGTT against Psx1, the z-score was inactive: -0.913. For CCAGAAACUGACCUCAACCTT against Ltb the value was inactive: -0.873; for GGGUUUCUAGUCCUGUUUCTT against Cplx2, inactive: -0.545. In the case of GUGUCUCUGUACUUAUUAUTT against Olfr483, the z-score is inactive: 0.104. For the sequence GCCCUCAAUAACUAUGUACTT against Il2, the z-score is inactive: 2.24. The figure for GGACCUAAGAAACUGCUUATT against Ccr7 is inactive: 1.04; for GGAUGAAAAUCAAUUCUCCTT against Nusap1 it is inactive: -0.597.

For the sequence “ACGACGAUCUUUCAGAAGUTT against MGI:2684414”, the z-score is inactive: -0.0804. Consider GGAGUGUUUAAAUAUAGCCTT against Mtmr9, for which the z-score is inactive: 0.651.

Turning to GGAACAAACCUUCAUUUAGTT against Osbp2, the z-score is inactive: 1.08. Regarding AACAUUGUAUAUCUCUCAUTT against Saa1, the z-score is inactive: -0.237. Take CCGAAAUGGACAUAUCAUUTT against Trim3: the z-score is inactive: 0.412. The figure for GGUGGUUUAAGAAAUCAAATT against Dolpp1 is inactive: -0.011. The figure for CGUGAAAUAAACAGUCUGATT against Ranbp2 is inactive: -1.18; for CCGAGCAAAAUCUCAAAUUTT against Mdh1 it is inactive: 0.503. For “CCUUAAUCAUUAGGAUUGCTT against 2700038I16Rik” the value was inactive: 0.41; for “GGCAGAGCCUGGAUUUAUCTT against 2610524H06Rik”, inactive: 0.2; for GGCUGAGCACAAUAAUCCCTT against Ndufs7, inactive: -0.279. In the case of “GGUCAGAUUCGGAAACCAGTT against D10Ertd718e”, the z-score is inactive: -1.54.

In the case of “GGAUGAAGAGCAUAACAGUTT against 2010005O13Rik”, the z-score is inactive: -1.02. For GGUCAACUCCUUUAUGAGCTT against Apoa4 the value was inactive: 0.58. Regarding GCUGGACAUCAAUACGGUGTT against Oplah, the z-score was inactive: -1.11. For “GGUGAAGAUCAUAUAAAAGTT against B230205M03” the value was inactive: 1.02; for “GGCAGAAAGACAUUUUCUUTT against 4921524P20Rik”, inactive: -1.22. Take “GGGAAAUCAGAUAAAGCCCTT against 2900073G15Rik”: the z-score was inactive: 0.2. For GCUUUUCCGUGAUCAUACATT against Tex14, the z-score is inactive: -1.6.

For “GGCAAGGUCUUCAAAGCGCTT against 2410081M15Rik”, the z-score was inactive: 0.562. The figure for GCAAUUACAGGAGGAAUUATT against Orc3l is inactive: -0.776; for GGAGCUCCUCUGAAUGCUCTT against Arhgef15 it is inactive: -0.285; for “GGCAAGAGAAUUGUAUACATT against 1810010O14Rik” it is inactive: -1.28. In the case of “GGGAAGCAAUAAGUCGCCUTT against 6230417E10Rik”, the z-score is inactive: 0.723. The figure for GGAUGCUCAACACUACGCUTT against Avp is inactive: 0.831. The figure for GGCAAACAAAACAAACUGATT against Tram1l1 is inactive: -0.244.

On to GGACAUCAAUUCAACAGUUTT against Lifr, for which the z-score is inactive: 1.04. The figure for “GGCAGAUGAGGGCUUAGCATT against 6530402N02Rik” is inactive: 0.211. For the sequence GGAAAAGACAAGCAUACGATT against Tmem16f, the z-score is inactive: -0.678.

Turning to GAUGCUGCCAACAUGACACTT against Clps, the z-score was inactive: -2.58. For GGAGUCAAGUCCACAUACATT against Usp47 the value was active: -0.927; for CGCAAUGGAAGUCUAUCUUTT against Zdhhc5, inactive: 0.131. For GGAGUGUUGAAGAAUAAGATT against Siat10 the value was inactive: 0.0815. The figure for GGCUGUGUUGAGUUUUCACTT against Abcg3 is inactive: 0.191; for UGAUCUACACUUUGGCUGUTT against Olfr232 it is inactive: 1.42; for GGAGGAUCUAUACCACGGUTT against Gpr74 it is inactive: -0.143. On to “GGAGAACAAGAUCCUGGAGTT against D3Ertd789e”, for which the z-score was inactive: -1.04. With GCUGGAUCUCAAGAAAAAUTT against Pou4f2, the z-score is inactive: -0.181. The figure for CCUAAAUUCGGUUUGAAUCTT against Fath is active: 2.74; for GCUCUGUGUGGUCUCCUAATT against Nrm it is inactive: -0.829; for “GGAACAUGUUUGAGUUUAATT against 2410006F12Rik” it is inactive: -1.42. Take GCGACUAUUUUGAAUACCATT against Tlk1: the z-score is inactive: 1.77. On to GCCCUCUUAUCUGAAUAAUTT against Stk17b, for which the z-score was inactive: 0.201. The figure for GCGGUAAUAUCUACGAAGATT against Ina is inactive: 1.59.

For the sequence GGGAAGAAGAAGAAUUUUGTT against Ubap2, the z-score was inactive: 0.277. The figure for GCCCUAUCAACACUUGGGATT against Prrxl1 is inactive: 0.0447. The figure for GCUCCGAAAGACUAGAUACTT against Spag8 is inactive: -1.54. For CGCACAUCCUGAAUAUACATT against Drd2 the value was inactive: 0.209; for GGAAGAGUGAUGGUUUUAATT against Tollip, inactive: -0.815. Consider “GGACAGCAACUAACAUUCATT against D630044F24Rik”, for which the z-score is inactive: 1.22. For “GGAGAUGGAUUUUUCUACUTT against F830045P16Rik” the value was inactive: -0.942. For CCAGAAUUGGCAGAUUUGCTT against Frap1 the value was inactive: -1.32; for GCUAAAAUUGGAUCAAGGATT against Ccbp2, inactive: 2.14; for GCUAGCAUAACUUCAGCUATT against Trim45, inactive: 0.332.

Consider “GGAACUCAGCUACAGUGAATT against D14Ertd209e”, for which the z-score was inactive: -1.57. For GGAGAUCACAGAAAAAACCTT against Colec12 the value was inactive: 0.0649; for CGCGUCUCUACAAAAACAUTT against Impa2, inactive: 0.867. For the sequence GGGCCAACUCAAAACAAAATT against Wdr37, the z-score is inactive: 1.15. For GGUGUCAUCAAGUUGAAAATT against Mcrs1, the z-score is inactive: 1.81. For “GCGGUACAUCAAAUCUGCGTT against 1110067D22Rik” the value was inactive: -0.23; for GCCUUGGCCUAAGUUAUACTT against BC055368, inactive: -0.656.

As to GCCCUAAUUGACUAUGAGATT against Snx5, the z-score was inactive: 0.11. With “GCACCGUGUCGUUGACUUGTT against A130009K11Rik”, the z-score was inactive: 0.149.

For the sequence GCUGGAUGGAGGCAAAGCATT against C1ql1, the z-score was inactive: -1.56. In the case of GGCUCUGACAGACAAUGGATT against Dpt, the z-score is inactive: 0.914. The figure for GGGUGAUGUGUGACAAUGUTT against Wnt2 is inactive: -1.15; for GGACAUGGAGAAAAAGUACTT against AI326477 it is inactive: -0.868; for “CCAUAUCUAUGAUAUGGUUTT against 9430028L06Rik” it is inactive: -0.556. For “GGGAUGCUUUUGGCCCAAATT against 1110008J03Rik” the value was inactive: -0.285.

In the case of GGACCACUCUGAAUAAGACTT against Ttc12, the z-score is inactive: -1.62. Regarding CCAUUACCUUACCCUCCGATT against Scnm1, the z-score is inactive: -1.14.

On to GUCAAAAAGCAAGAAGCCUTT against Etd, for which the z-score is inactive: 0.575. The figure for “GGCUGACAAGGAAUUUGUATT against D530005L17Rik” is inactive: -0.489.
